Part of at least one peptide drawing is inferred or uncertain, most often the ends. For at least one compound, name, drawing or mass did not settle the structure. Where a SMILES comes first, the peptide text is derived from it. Bridges are numbered along the chain shown (N, C = ends). [ ]: non-standard residue; d: D form. The star is where a group is joined. X2 = NC[C@@H](CC(=O)*)c1cccc(-c2ccccc2)c1; X1 = NC[C@@H](CC(=O)*)c1cccc(Cl)c1; Dab = NCC[C@H](N)C(=O)O; Abu = CC[C@H](N)C(=O)O; Dap = NC[C@H](N)C(=O)O
Experiments:
Format in all cases: in vivo
[1] = test system: E. coli ATCC 25922; assay: Neutropenic murine thigh model; settings: CD-1 mice thigh, counts at 9 h, PMB of same experiment in parentheses
[2] = test system: K. pneumoniae ATCC 43816; assay: Neutropenic murine thigh model; settings: CD-1 mice thigh, counts at 16 h, PMB in parentheses
Description: After rendering neutropenic (cyclophosphamide 150 mg/kg d-4, 100 mg/kg d-1), CD-1 mice (n=5) were inoculated in each thigh with approx. 10^5 cfu of K. pneumoniae ATCC43816. Mice were dosed IV with appropriate doses of PMB sulphate or test compound (equivalent weight free base) at 2, 6 and 10 h post-infection. At 16 h post-infection mice were euthanised and thighs prepared for colony counts.
(§1) In each case the decrease observed with PMB in the same experiment is shown in parentheses: […]

[3] = test system: A. baumannii NCTC13301; assay: Neutropenic murine thigh model; settings: CD-1 mice thigh, counts at 16 h, PMB in parentheses
Description: After rendering neutropenic (cyclophosphamide 150 mg/kg d-4, 100 mg/kg d-1), CD-1 mice (n=5) were inoculated in each thigh with approx. 10^5 cfu of A. baumannii NCTC13301. […] At 16 h post-infection mice were euthanised and thighs prepared for colony counts.
as §1

[4] = test system: A. baumannii NCTC13301; assay: Neutropenic murine lung model; settings: CD-1 mice lung, counts at 16 h
Description: (§2) After rendering neutropenic (cyclophosphamide 200 mg/kg d-4, 150 mg/kg d-1), CD-1 mice (n=8) were inoculated intranasally with approx. 10^7 cfu per lung of A. baumannii NCTC13301. Mice were dosed SC with PMB sulphate (20 mg/kg) or appropriate doses of test compound (equivalent weight free base) at 2, 6 and 10 h post-infection. At 16 h post-infection mice were euthanised and lungs prepared for colony counts.
as §1

[5] = test system: P. aeruginosa ATCC 27853; assay: Neutropenic murine lung model; settings: CD-1 mice lung, counts at 16 h
Description: as §2, with “mg/kg d-1).” for “mg/kg d-1),”, “with 10^4-10^5” for “with approx. 10^7”, “of P. aeruginosa ATCC27853.” for “of A. baumannii NCTC13301.”, “with” for “with PMB sulphate (20 mg/kg) or”, “of PMB sulphate or” for “of”
as §1

[6] = IV 0.5 mg/kg at 1, 3.5, 6 h post-infection
[7] = IV 3 mg/kg at 1, 3.5, 6 h post-infection
[8] = IV […] at 1, 3.5, 6 h post-infection
[9] = SC 20 mg/kg at 2, 6, 10 h, PMB (20 mg/kg) in parentheses
[10] = SC 2.5 mg/kg at 2, 6, 10 h, PMB in parentheses
[11] = SC 20 mg/kg at 2, 6, 10 h, PMB in parentheses

SMILES | Log drop in cfu Compared to Vehicle Control [1, 6] | Log drop in cfu Compared to Vehicle Control [1, 7] | Log drop in cfu Compared to Vehicle Control [1, 8] | Log drop in cfu Compared to Vehicle Control ([2]; IV 0.5 mg/kg at 2, 6, 10 h) | Log drop in cfu Compared to Vehicle Control ([2]; IV […] at 2, 6, 10 h) | Log drop in cfu Compared to Vehicle Control ([3]; IV 0.5 mg/kg at 2, 6, 10 h) | Log drop in cfu Compared to Vehicle Control ([3]; IV 1 mg/kg at 2, 6, 10 h) | Log drop in cfu Compared to Vehicle Control ([3]; IV 4 mg/kg at 2, 6, 10 h) | Log drop in cfu Compared to Vehicle Control ([3]; IV […] at 2, 6, 10 h) | Log drop in cfu Compared to Vehicle Control ([4]; SC 2.5 mg/kg at 2, 6, 10 h) | Log drop in cfu Compared to Vehicle Control ([4]; SC 10 mg/kg at 2, 6, 10 h) | Log drop in cfu Compared to Vehicle Control [4, 9] | Log drop in cfu Compared to Vehicle Control ([4]; SC 30 mg/kg at 2, 6, 10 h) | Log drop in cfu Compared to Vehicle Control [5, 10] | Log drop in cfu Compared to Vehicle Control [5, 11] | further results
CC(C)C[C@@H]1NC(=O)[C@@H](Cc2ccccc2)NC(=O)[C@H](CCN)NC(=O)[C@@H](NC(=O)[C@H](CN)NC(=O)[C@@H](NC(=O)C[C@H](CN)c2cccc(Cl)c2)[C@@H](C)O)CCNC(=O)[C@H]([C@@H](C)O)NC(=O)[C@H](CCN)NC(=O)[C@H](CCN)NC1=O [Example 5, (S)-4-amino-3-(3- chlorophenyl)butanoyl- Thr-Dap-Cyclo[Dab- Dab-DPhe-Leu-Dab- Dab-Thr]] (X1-T[Dap][Dab][Dab][dF]L[Dab][Dab]T; lactam 3-C) | 2.2 | 3.4 | 0.1 | 4.8 | 0 | 3.1 | 6.7 | 7.4 | 0.4 | 0 | 0 | 2.5 | 4.0 | 0 (0) | 3.6 | Log drop in cfu Compared to Vehicle Control ([2]; IV 1 mg/kg at 2, 6, 10 h): 4.8; Log drop in cfu Compared to Vehicle Control ([2]; IV 4 mg/kg at 2, 6, 10 h): 5.3; Log drop in cfu Compared to Vehicle Control ([5]; SC 5 mg/kg at 2, 6, 10 h, PMB in parentheses): 0 (0); Log drop in cfu Compared to Vehicle Control ([5]; SC 10 mg/kg at 2, 6, 10 h, PMB in parentheses): 2
CC[C@@H]1NC(=O)[C@@H](CC(C)C)NC(=O)[C@H](CCN)NC(=O)[C@@H](NC(=O)[C@H](CN)NC(=O)[C@@H](NC(=O)C[C@H](CN)c2cccc(-c3ccccc3)c2)[C@@H](C)O)CCNC(=O)[C@H]([C@@H](C)O)NC(=O)[C@H](CCN)NC(=O)[C@H](CCN)NC1=O [Example 24, (S)-3-(1,1′-biphenyl- 3-yl)-4-aminobutanoyl-Thr- Dap-Cyclo[Dab-Dab- DLeu-Abu-Dab-Dab- Thr]] (X2-T[Dap][Dab][Dab][dL][Abu][Dab][Dab]T; lactam 3-C) | 0.4 | 2.4 | 0 (0) | 0.2 | 0 | 2.2 | 5.5 | 5.7 | 0.1 (0.1) | 0.9 | 1.6 | 2.7 | 3.9 | 0.8 | 4.4 | Log drop in cfu Compared to Vehicle Control ([2]; IV 0.25 mg/kg at 2, 6, 10 h): 0.2 (0.2); Log drop in cfu Compared to Vehicle Control ([2]; IV 2 mg/kg at 2, 6, 10 h): 4.7; Log drop in cfu Compared to Vehicle Control ([5]; SC 7.5 mg/kg at 2, 6, 10 h, PMB in parentheses): 3.2; Log drop in cfu Compared to Vehicle Control ([5]; SC 40 mg/kg at 2, 6, 10 h): 5.7
